Some results were stated once for a whole list of compounds, not compound by compound.
Target: Mdm2 (Homo sapiens, UniProt Q00987)
Assay: In-Cell Western, mut p53 MDA-MB-231 cell line
Assay type: cell-based
Set-up: endogenous in cells; host or cells: MCF7 (A8); MDA-MB-231 (A9)
Conditions: mutant p53 MDA-MB-231
Description: Cells were seeded at decreasing cell number from 15K cells to 2K cells. The Mdm2 primary antibody was tested at 1:200 and 1:300 dilution. The secondary antibody conjugated to IRDye800CW was used with 1:800 dilution, and CellTag 700 Stain was used at 1:1000 dilution as manufacture recommended. The linearity of cell number versus signal was generated with Prism. The signal over background ratio was also calculated.
The potential PROTACs were evaluated in the wt p53 MCF7 cell line and in the mut p53 MDA-MB-231 cell line. Importantly these were compared to MD-224, which was recently reported to potently degrade Mdm2 in RS4; 11 leukemia cells (Li et al., 2019). Assay linearity was performed confirming a strong 4-fold signal to noise in the assay. A series of bi-functional molecules were then treated and evaluated for protein level in the assay over time from 2 h-48 h. […] In this wt p53 cancer cell line the stabilization of p53 (FIG. 15B), and subsequent p53-mediated transcriptional upregulation of Mdm2 make it difficult to observe degradation. […] These compounds were evaluated in the mutant p53 cancer cells. […] In this cell line, it takes approximately 16-24 h to detect the degradation. […] The difference in the molecules is that MD-224 utilizes a CRBN recruiting ligand.

Amino acid sequences for entries named in this document (tags omitted).
UniProt Q00987, whole entry: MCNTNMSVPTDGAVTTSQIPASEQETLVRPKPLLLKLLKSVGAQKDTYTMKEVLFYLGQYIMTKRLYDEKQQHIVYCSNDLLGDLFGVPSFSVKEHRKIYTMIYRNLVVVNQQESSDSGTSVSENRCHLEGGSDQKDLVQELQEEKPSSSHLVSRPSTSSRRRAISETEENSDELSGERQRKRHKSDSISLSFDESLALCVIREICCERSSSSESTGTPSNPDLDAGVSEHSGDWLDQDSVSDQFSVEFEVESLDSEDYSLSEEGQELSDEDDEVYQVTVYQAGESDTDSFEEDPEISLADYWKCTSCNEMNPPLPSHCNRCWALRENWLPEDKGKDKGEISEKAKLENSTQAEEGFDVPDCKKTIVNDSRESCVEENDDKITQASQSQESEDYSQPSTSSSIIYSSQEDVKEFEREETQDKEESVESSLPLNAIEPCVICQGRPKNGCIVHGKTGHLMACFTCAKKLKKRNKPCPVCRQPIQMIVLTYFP

Structure (SMILES)	time to detect the degradation
CCOc1cc(C(C)(C)C)ccc1C1=N[C@](C)(c2ccc(Cl)cc2)[C@](C)(c2ccc(Cl)cc2)N1C(=O)N1CCN(CC(=O)NCCOCCOCCOCC(=O)N[C@H](C(=O)N2C[C@H](O)C[C@H]2C(=O)NCc2ccc(-c3scnc3C)cc2)C(C)(C)C)CC1 (racemic) [YX-02-030]	16 to 24 h
CCOc1cc(C(C)(C)C)ccc1C1=N[C@](C)(c2ccc(Cl)cc2)[C@](C)(c2ccc(Cl)cc2)N1C(=O)N1CCN(CC(=O)NCCCNC(=O)COc2ccc3c(c2)CN(C(=O)[C@H](NC(=O)[C@@H](C)NC)C(C)(C)C)[C@@H](C(=O)N[C@H]2CCCc4ccccc42)C3)CC1 [YX-02-228, (R)-7-(2-((3-(2-(4-((4R,5S)-2-(4-(tert-butyl)-2-ethoxyphenyl)-4,5-bis(4-chlorophenyl)-4,5-dimethyl-4,5-dihydro-1H-imidazole-1-carbonyl)piperazin-1-yl)acetamido)propyl)amino)-2-oxoethoxy)-2-((R)-3,3-dimethyl-2-((R)-2-(methylamino)propanamido)butanoyl)-N-((S)-1,2,3,4-tetrahydronaphthalen-1-yl)-1,2,3,4-tetrahydroisoquinoline-3-carboxamide]	16 to 24 h
